The target of assay [1] is FLAG-tagged NOD2 (human) (UniProt Q9HC29). In words: co-IP; HEK293T transfected with the indicated constructs, harvested in RIPA buffer 24 h after transfection; FLAG-tagged NOD2 precipitated 3 h at 4 °C with anti-FLAG M2 agarose; immunoblot. A general note: Immunoblotting shows a protein as a band on a membrane.
The target of assay [2] is Myc-BirA*-NOD2 (human) (UniProt Q9HC29). In words: co-IP; THP-1 Myc-BirA*-NOD2 cells, MDP 10 µg/mL for 2 h with or without MG132 (12.5 µM); lysis in 50 mM HEPES pH 7.5, 150 mM NaCl, 1% iGPAL; anti-Myc magnetic beads 3 h; immunoblot.
Assay [3] has the same target. In words: condition: only cells treated with LPS (0.2 µg/mL, 2 h) instead of MDP; co-IP; THP-1 Myc-BirA*-NOD2 cells treated with LPS (0.2 µg/mL) for 2 h instead of MDP; precipitation with anti-Myc; immunoblot.

The chains behind the UniProt entries cited, without tags or fusion partners. Where a name states a change or a piece, a line headed by the entry shows the natural chain unless it says otherwise.
UniProt Q9HC29: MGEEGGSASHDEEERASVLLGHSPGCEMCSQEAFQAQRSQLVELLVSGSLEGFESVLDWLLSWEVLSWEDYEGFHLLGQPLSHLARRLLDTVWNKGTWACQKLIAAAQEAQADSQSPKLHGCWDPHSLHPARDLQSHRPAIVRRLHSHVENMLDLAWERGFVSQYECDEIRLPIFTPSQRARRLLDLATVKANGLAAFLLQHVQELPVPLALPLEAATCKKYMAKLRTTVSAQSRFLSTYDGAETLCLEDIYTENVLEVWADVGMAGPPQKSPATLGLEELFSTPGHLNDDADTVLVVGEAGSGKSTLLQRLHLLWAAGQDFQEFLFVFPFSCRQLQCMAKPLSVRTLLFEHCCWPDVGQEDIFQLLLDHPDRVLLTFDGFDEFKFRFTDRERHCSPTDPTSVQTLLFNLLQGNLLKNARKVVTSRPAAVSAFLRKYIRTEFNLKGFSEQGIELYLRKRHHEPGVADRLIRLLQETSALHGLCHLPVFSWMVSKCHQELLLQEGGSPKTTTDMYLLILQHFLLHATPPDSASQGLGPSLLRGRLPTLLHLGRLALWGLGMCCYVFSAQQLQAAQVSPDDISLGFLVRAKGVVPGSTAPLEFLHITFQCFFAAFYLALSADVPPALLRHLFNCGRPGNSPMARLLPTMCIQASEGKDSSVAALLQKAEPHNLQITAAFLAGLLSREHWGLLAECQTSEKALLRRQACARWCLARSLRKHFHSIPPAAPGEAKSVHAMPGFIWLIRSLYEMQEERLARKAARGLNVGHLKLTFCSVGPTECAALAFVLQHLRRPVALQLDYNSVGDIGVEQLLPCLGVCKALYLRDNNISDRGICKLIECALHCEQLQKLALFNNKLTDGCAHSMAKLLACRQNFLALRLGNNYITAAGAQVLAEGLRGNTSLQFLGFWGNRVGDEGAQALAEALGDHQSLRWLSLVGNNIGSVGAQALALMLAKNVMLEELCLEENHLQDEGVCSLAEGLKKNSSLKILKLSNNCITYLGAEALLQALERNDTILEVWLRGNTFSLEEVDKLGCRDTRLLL

No constants are given. Whether binding was seen depends on the method and setting. In cells and extracts the contact can be indirect. For some assays here: Binding calls can cover weak binding; strength is not graded here. Where a sequence is shown, tags or fusion partners need not be part of it.

Regarding “Myc-tagged NLRP12 (wild type) (from UniProt P59046)”, in assay [1], the binding result is “binds”.

B1: Myc-tagged NLRP12 Δ-PYD linker (200 aa–1061 aa) (domain or fragment, UniProt P59046 200-1061)
chain: FEPDEERPEPPRTVVMQGAAGIGKSMLAHKVMLDWADGKLFQGRFDYLFYINCREMNQSATECSMQDLIFSCWPEPSAPLQELIRVPERLLFIIDGFDELKPSFHDPQGPWCLCWEEKRPTELLLNSLIRKKLLPELSLLITTRPTALEKLHRLLEHPRHVEILGFSEAERKEYFYKYFHNAEQAGQVFNYVRDNEPLFTMCFVPLVCWVVCTCLQQQLEGGGLLRQTSRTTTAVYMLYLLSLMQPKPGAPRLQPPPNQRGLCSLAADGLWNQKILFEEQDLRKHGLDGEDVSAFLNMNIFQKDINCERYYSFIHLSFQEFFAAMYYILDEGEGGAGPDQDVTRLLTEYAFSERSFLALTSRFLFGLLNEETRSHLEKSLCWKVSPHIKMDLLQWIQSKAQSDGSTLQQGSLEFFSCLYEIQEEEFIQQALSHFQVIVVSNIASKMEHMVSSFCLKRCRSAQVLHLYGATYSADGEDRARCSAGAHTLLVQLPERTVLLDAYSEHLAAALCTNPNLIELSLYRNALGSRGVKLLCQGLRHPNCKLQNLRLKRCRISSSACEDLSAALIANKNLTRMDLSGNGVGFPGMMLLCEGLRHPQCRLQMIQLRKCQLESGACQEMASVLGTNPHLVELDLTGNALEDLGLRLLCQGLRHPVCRLRTLWLKICRLTAAACDELASTLSVNQSLRELDLSLNELGDLGVLLLCEGLRHPTCKLQTLRLGICRLGSAACEGLSVVLQANHNLRELDLSFNDLGDWGLWLLAEGLQHPACRLQKLWLDSCGLTAKACENLYFTLGINQTLTDLYLTNNALGDTGVRLLCKRLSHPGCKLRVLWLFGMDLNKMTHSRLAALRVTKPYLDIGC
With B1, in assay [1], the binding entry was “binds”.

B2: Myc-tagged NLRP12 R284X (domain or fragment, UniProt P59046 1-283)
chain: MLRTAGRDGLCRLSTYLEELEAVELKKFKLYLGTATELGEGKIPWGSMEKAGPLEMAQLLITHFGPEEAWRLALSTFERINRKDLWERGQREDLVRDTPPGGPSSLGNQSTCLLEVSLVTPRKDPQETYRDYVRRKFRLMEDRNARLGECVNLSHRYTRLLLVKEHSNPMQVQQQLLDTGRGHARTVGHQASPIKIETLFEPDEERPEPPRTVVMQGAAGIGKSMLAHKVMLDWADGKLFQGRFDYLFYINCREMNQSATECSMQDLIFSCWPEPSAPLQELI
In the case of B2, the binding result in assay [1] is recorded as “binds”.

B3: NLRP12 (in THP-1 Myc-BirA*-NOD2 cells) (protein, UniProt P59046-7 1-1062)
chain: MLRTAGRDGLCRLSTYLEELEAVELKKFKLYLGTATELGEGKIPWGSMEKAGPLEMAQLLITHFGPEEAWRLALSTFERINRKDLWERGQREDLVRDTPPGGPSSLGNQSTCLLEVSLVTPRKDPQETYRDYVRRKFRLMEDRNARLGECVNLSHRYTRLLLVKEHSNPMQVQQQLLDTGRGHARTVGHQASPIKIETLFEPDEERPEPPRTVVMQGAAGIGKSMLAHKVMLDWADGKLFQGRFDYLFYINCREMNQSATECSMQDLIFSCWPEPSAPLQELIRVPERLLFIIDGFDELKPSFHDPQGPWCLCWEEKRPTELLLNSLIRKKLLPELSLLITTRPTALEKLHRLLEHPRHVEILGFSEAERKEYFYKYFHNAEQAGQVFNYVRDNEPLFTMCFVPLVCWVVCTCLQQQLEGGGLLRQTSRTTTAVYMLYLLSLMQPKPGAPRLQPPPNQRGLCSLAADGLWNQKILFEEQDLRKHGLDGEDVSAFLNMNIFQKDINCERYYSFIHLSFQEFFAAMYYILDEGEGGAGPDQDVTRLLTEYAFSERSFLALTSRFLFGLLNEETRSHLEKSLCWKVSPHIKMDLLQWIQSKAQSDGSTLQQGSLEFFSCLYEIQEEEFIQQALSHFQVIVVSNIASKMEHMVSSFCLKRCRSAQVLHLYGATYSADGEDRARCSAGAHTLLVQLRPERTVLLDAYSEHLAAALCTNPNLIELSLYRNALGSRGVKLLCQGLRHPNCKLQNLRLKRCRISSSACEDLSAALIANKNLTRMDLSGNGVGFPGMMLLCEGLRHPQCRLQMIQLRKCQLESGACQEMASVLGTNPHLVELDLTGNALEDLGLRLLCQGLRHPVCRLRTLWLKICRLTAAACDELASTLSVNQSLRELDLSLNELGDLGVLLLCEGLRHPTCKLQTLRLGICRLGSAACEGLSVVLQANHNLRELDLSFNDLGDWGLWLLAEGLQHPACRLQKLWLDSCGLTAKACENLYFTLGINQTLTDLYLTNNALGDTGVRLLCKRLSHPGCKLRVLWLFGMDLNKMTHSRLAALRVTKPYLDIGC
As to B3, the binding entry in assay [2] is “binds”; in assay [3] it was “no binding”.

The record behind these values is article PMC6297353.
